Reference: PMC10584876
Results are given in words; binding and its absence hold for the method and conditions named. In cells and extracts the contact can be indirect. Some results given as binding are weak or reduced against the parent protein; the word gives no strength. Sequences can lack the tags named with a protein.

The chains behind the UniProt entries cited, without tags or fusion partners.
UniProt O18640: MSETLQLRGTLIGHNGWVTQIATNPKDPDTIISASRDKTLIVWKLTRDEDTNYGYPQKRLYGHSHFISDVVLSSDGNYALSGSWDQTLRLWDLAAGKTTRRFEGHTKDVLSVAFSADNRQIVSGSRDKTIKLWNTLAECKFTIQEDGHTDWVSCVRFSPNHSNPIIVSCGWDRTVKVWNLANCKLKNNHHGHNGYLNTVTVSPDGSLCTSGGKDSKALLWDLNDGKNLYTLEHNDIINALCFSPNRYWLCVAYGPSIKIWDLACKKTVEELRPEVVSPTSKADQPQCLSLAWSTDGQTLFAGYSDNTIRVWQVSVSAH

Target: T1, Cofilin-GFP (Drosophila) (UniProt P45594)
T1 sequence: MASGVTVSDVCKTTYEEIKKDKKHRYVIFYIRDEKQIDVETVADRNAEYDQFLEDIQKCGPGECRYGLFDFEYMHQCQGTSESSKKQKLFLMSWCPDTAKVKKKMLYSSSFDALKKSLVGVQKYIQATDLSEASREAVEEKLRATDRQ
Experiment: co-IP; da-GAL4 > UAS-Cofilin-GFP adult head extracts, anti-GFP antibody, Protein A/G Agarose, western blot

In the case of “RACK1 (Receptor for activated C kinase 1) (from UniProt O18640 1-318)”, the binding is reported as “binds”.
